{
  "source": "patent US20150165756A1",
  "about": "“STENCILS” (DTG International GmbH, priority 2011, published 2015)",
  "assay": "Maximal solubility in oily components (mixing, PTFE filtration, HPLC analysis)",
  "format": "physicochemical",
  "settings": "soybean oil, castor oil and MCT as component (C)",
  "method": "As pyrazolopyrimidine component, (6-Bromo-pyrazolo[1,5-a]-pyrimidine-2-yl)-(1(R)-methyl-3,4-dihydro-1H-isoquinoline-2-yl)-methanone was formulated with various oily components with higher concentrations of the drug substance using specific amounts of oily components (C). The following compositions were prepared by mixing the respective oily component (C) and the pyrazolopyrimidine compound, followed by filtration (PTFE-filter) and then analysis by High Performance Liquid Chromatography.\nA liquid mixture was prepared by using 100 g of soybean oil and 100 g of MCT. The soybean oil is commercially available by Caelo (Caesar & Lorenz GmbH, Hilden, Germany). The component MCT is also commercially available (e.g. by Caelo). The solubility of compound (A) in this 50:50 (w/w) mixture of two oily components (C1) and (C2) was tested. Three different compositions were prepared (containing 1 mg/ml, 1.5 mg/ml and 2.0 mg/ml) of compound (A).",
  "note": "The name of at least one read-out is uncertain.",
  "data": [
    {"smiles": "C[C@@H]1c2ccccc2CCN1C(=O)c1cc2ncc(Br)cn2n1", "note": "[Compound (A), (6-Bromo-pyrazolo[1,5-a]pyrimidine-2-yl)-(1(R)-methyl-3,4-dihydro-1H-isoquinoline-2-yl)-methanone]", "values": [
      {"measurement": "solubilisation by oily component (C)", "result": "sufficiently solubilised"}
    ]}
  ]
}
